# Results published in PubChem BioAssay AID651789 (National Center for Advancing Translational Sciences (NCATS), 2012).
# Inconclusive means that the source gave no clear call. Such entries were picked first, then a sample of the others. Where the call is inconclusive, the potency comes from a doubtful curve fit. The source made the active and inactive calls. The call rests on the fitted dose curve; in most records, active means well fitted inhibition curve with a large enough effect; inconclusive means small, poorly fitted or top-dose-only effect; inactive means no such curve, though single readings can be large or run the other way.
# Assay: Acumen qHTS Assay for Inhibitors of the mTORC1 Signaling Pathway in WT MEF Cells: Hit Validation; further: nearly all actives have a fitted effect of over 60% in size;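 on activity change, negative = inhibition: percent of cells above a cutoff set by 7.5 nM rapamycin treated wells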
# Conditions: Acumen imaging; series mostly up to 37.3 µM; activity change, negative = inhibition: at the top concentration
# Source text: The mammalian target of rapamycin (mTOR) is an intracellular serine/threonine kinase Aberrant regulation of mTOR signaling plays a causative role in a number of human diseases, including cancer, benign tumors such as lymphangioleiomyomatosis (LAM) and Tuberous Sclerosis Complex (TSC), and metabolic diseases such as diabetes and obesity. This project aims to identify inhibitors of ribosomal protein S6 (rpS6) phosphorylation. The phosphorylation of rpS6 is a key event downstream of mTOR activation. The assay uses a phospho-specific antibody of phospho-rpS6 to detect inhibitors of mTOR activation. Mutations in the Tsc1 and Tsc2 genes are the underlying genetic lesions responsible for TSC, causing constitutive activation of the mTORC1 pathway and leading to profound effects on cell metabolism. Aberrant metabolism in cancer has recently received significant attention as a target to develop therapeutic agents in the treatment of cancer.1 As Tsc2-/- cells have lost the ability to respond to energy and growth factor deprivation, these cells are unable to properly down regulate cellular biosynthetic processes in response to metabolic stress, and are thus extremely sensitive to glucose deprivation-induced death.2 A central goal of this project is to explore the unique cell survival and metabolic properties of cells with Tsc1 or Tsc2 by screening for compounds that selectively target the Tsc2-/- MEFs by screening both Tsc2-/- and WT MEF cell lines. We hope to better understand these aspects of TSC physiology in order to exploit them for therapeutic benefit.
# NIH Molecular Libraries Probe Production Centers Network [MLPCN]
# NIH Chemical Genomics Center [NCGC]
# Assay Submitter (PI): Blenis, John; Harvard University
# For quantitative high throughput analysis of mTORC1 signaling, we developed a cell-based assay for immuno-fluorescence based detection of rpS6 phosphorylation on the Acumen Explorer that will be used a platform for the primary small molecule screen. Mouse embryonic fibroblasts (MEFs) are cultured in 1536-well plates using DMEM + 10% FBS. Twenty-four hrs after plating, test compounds (solubilized in DMSO) are delivered and incubated with the cells for 24 hrs at 37 degree Celsius. Following the incubation, media with compound is aspirated and the cells are fixed in 4% paraformaldehyde (PFA) containing PBS + 0.2% TX-100. Next, PFA is aspirated, cells are washed two times with PBS plus 0.2% TX-100 and the cells are blocked for 1 hr at room temperature (blocking buffer: LiCOR Blocking Buffer plus 0.2% TX-100). This is followed by aspiration and staining with Alexa-488 conjugated-phospho-rpS6 Ser235/236 antibody for 2 hours at room temperature (Cell Signaling Technology # 4803, 1:50 dilution in blocking buffer). Cells are washed two times with PBS plus 0.2% TX-100, and stained with 10 uM propidium iodide (PI) for 20-25 minutes for cell number measurement (1:500 dilution of Hoescht staining is also added for IN Cell imaging). The plates are scanned on the Acumen Explorer laser scanning instrument (TTP Labtech) using the 488nm laser for simultaneous excitation of the Alexa-488 and PI. […] Fluorescence emission from the PI stain is selected using a 575-640 nm band pass filter. The normalized phospho-S6 staining is calculated as the ratio of the integrated Alexa 488 intensity divided by the integrated PI intensity for the single concentration rapamycin control (7.5 nM) and DMSO columns. […] Inhibition of the pathway is defined based on the normalized phospho-S6 intensity in rapamycin treated cells. Active cells are defined as those with a normalized phospho-S6 staining above this threshold, and each treatment is reported as the % positive cells in the well, where thresholds are defined by selecting wells with the highest and lowest signal and differentiating between the % non-active and % active populations. In addition to the pathway specific phospho-S6 endpoint, the number of PI stained cells from the Acumen is recorded as a measure of cell viability. […]
# Potency means the concentration at half of the fitted maximal effect.
Structure (SMILES),Potency,"activity change, negative = inhibition"
COc1ccc(CNCCC(c2ccccc2)c2ccc3c(c2)OCO3)cc1 (stereo not given),"inconclusive: 14.7 µM [inhibitor, single point]",
COc1ccc(N2CCN(C(=O)C3CCN(Cc4nc(-c5ccc(Cl)cc5)oc4C)CC3)CC2)cc1,"inconclusive: 13.1 µM [inhibitor, single point]",
Cc1ccc(NC(=O)CCS(=O)(=O)c2ccc3nc(C)sc3c2)cc1,"inconclusive: 26.1 µM [inhibitor, single point]",
Cc1cccc(Cn2cc(C(=O)Nc3ccc(F)c(C(F)(F)F)c3)ccc2=O)c1,,inactive: 0.763%
CN1CCC(Nc2ncc3ncnc(Nc4ccc(F)c(Cl)c4)c3n2)CC1,"inconclusive: 29 µM [inhibitor, single point]",
CCSc1oc(-c2ccc(F)cc2)nc1S(=O)(=O)c1ccc(C)cc1,,inactive: -16.5%
COc1ccc(C(=O)c2sc(Nc3ccccc3)nc2N)cc1,"inconclusive: 23.3 µM [inhibitor, single point]",
COC(=O)c1c(NC(=O)c2ccc(S(=O)(=O)N3CCCCC3)cc2)sc2c1CCN(C)C2,"inconclusive: 23.3 µM [inhibitor, single point]",
C#CC(C)(CC)NC(=O)Cn1nnc(-c2ccc(OCc3c(F)cccc3Cl)cc2)n1 (stereo not given),,inactive: 2.29%
Cc1n[nH]c(C)c1S(=O)(=O)N(CC(=O)Nc1ccc(C(F)(F)F)cc1)c1ccc(C(C)C)cc1,"inconclusive: 14.7 µM [inhibitor, single point]",
O=C(Nc1ccc(Cl)cc1)C1CCC(CNS(=O)(=O)c2ccc(Br)s2)CC1 (stereo not given),,inactive: -8.29%
CC/C(=C(\c1ccccc1)c1ccc(OCCN(C)C)cc1)c1ccccc1,,inactive: -13.2%
CCN1CCOC(=O)C1CC(=O)Nc1cc(C)cc(C)c1 (stereo not given),"inconclusive: 16.5 µM [inhibitor, single point]",
Cc1cccc(N2CCN(C(=O)c3ccc(CS(=O)c4cccc(Cl)c4)o3)CC2)c1C (stereo not given),"inconclusive: 0.736 µM [inhibitor, full curve]",
CCCOCc1cc(CN2CCN(c3ccccc3OC)CC2)c(O)c2ncccc12,active: 1.47 µM,
COc1ccccc1Nc1cc(C(=O)NCCCN(C)C2CCCCC2)c2ccccc2n1,"inconclusive: 23.3 µM [inhibitor, single point]",
CCCCS(=O)(=O)c1oc(-c2cccs2)nc1S(=O)(=O)c1ccc(F)cc1,"inconclusive: 1.31 µM [inhibitor, full curve]",
CC(C)CCNC(=O)Nc1ccc2c(c1)N(C)C(=O)c1ccccc1S2,,inactive: -1.53%
Cc1ccccc1OCc1ccc(-c2nc(C#N)c(NCCCN(C)C)o2)o1,"inconclusive: 26.1 µM [inhibitor, single point]",
Cc1ccccc1CS(=O)(=O)c1ncc(Cl)c(C(=O)Nc2nnc(C(C)C)s2)n1,active: 11.7 µM,

Structure (SMILES),Potency,"activity change, negative = inhibition"
CCOC(=O)N1CCN(Cc2nc3cc(NC(=O)c4ccc(F)cc4)ccc3n2C(C)C)CC1,"inconclusive: 1.17 µM [inhibitor, full curve]",
c1ccc(N2CCN(c3ncnc4[nH]ncc34)CC2)cc1,,inactive: -11.7%
CCC(C)NC(=O)c1sc2nc(C)c(C(=O)Nc3ccc(C)cc3C)c(-c3ccc(Cl)cc3)c2c1N (stereo not given),,inactive: 13.2%
CCOC(=O)CSc1nc2cc3c(cc2c(=O)n1CCCCCC(=O)NCc1ccc2c(c1)OCO2)OCO3,,inactive: -19.6%
O=C1c2[nH]nc(-c3ccccc3O)c2C(c2ccc(Cl)cc2)N1CCc1ccccc1 (stereo not given),"inconclusive: 20.7 µM [inhibitor, partial curve, poor fit]",
CCN1CCOC(=O)C1CC(=O)Nc1cc(Cl)ccc1C (stereo not given),"inconclusive: 16.5 µM [inhibitor, single point]",
CCOc1ccc(NC(=O)c2sc3nc4c(cc3c2N)CCCCCC4)cc1,,inactive: -9.68%
CCc1cnc2c(c1SCC(=O)NCc1ccc(F)cc1)c(=O)n(C)c(=O)n2C,"inconclusive: 0.131 µM [inhibitor, full curve, poor fit]",
Cc1cccc(NC(=O)Cn2nc(-c3ccc(Cl)cc3)c3ccccc3c2=O)c1,"inconclusive: 29.3 µM [inhibitor, single point]",
COc1ccc(Cl)cc1C1CC(=O)Nc2cc3c(cc21)OCCO3 (stereo not given),"inconclusive: 0.927 µM [inhibitor, full curve]",
COc1ccc(C(=O)Nc2ccc(OCc3cc(=O)n4ccccc4n3)cc2)cc1,"inconclusive: 0.0083 µM [inhibitor, full curve, poor fit]",
CC(CNC(=O)c1ccc(Nc2nc3ccccc3n3nnnc23)cc1)c1ccccc1 (stereo not given),,inactive: 65.1%
Cn1nc(-c2ccc(OCC(=O)Nc3ccc(Cl)cc3)cc2)c2ccccc2c1=O,,inactive: -23.6%
Cc1cc(C)cc(NC(=O)c2cnn(-c3ccc(C)c(C)c3)c2C2CCNCC2)c1,"inconclusive: 16.5 µM [inhibitor, partial curve, poor fit]",
Cc1cc(C)c2c(NC(=O)c3ccccc3Cl)c(C(=O)Nc3ccc(C)c(C)c3)sc2n1,"inconclusive: 0.0233 µM [inhibitor, full curve]",
CCOC(=O)c1c(NC(=O)c2ccc(S(=O)(=O)N(CCOC)CCOC)cc2)sc2c1CC(C)(C)NC2(C)C,active: 3.29 µM,
CCCCN(C)CC(O)Cn1cc(/C=C/C(=O)c2ccc(OCC)cc2)c2ccccc21 (stereo not given),"inconclusive: 23.3 µM [inhibitor, single point]",
CS(=O)(=O)CCNCc1ccc(-c2ccc3ncnc(Nc4ccc(OCc5cccc(F)c5)c(Cl)c4)c3c2)o1,,inactive: 1.69%
COc1ccccc1Cn1cc(C(=O)c2ccc(Cl)cc2)c(=O)c2ccccc21,"inconclusive: 26.1 µM [inhibitor, single point]",
Nc1nc(Nc2ccccc2F)sc1C(=O)c1ccc(Cl)cc1,,inactive: 37.1%

# Quoted from the listing.
# `Nc1nc(Nc2ccccc2F)sc1C(=O)c1ccc(Cl)cc1` – activity change, negative = inhibition: inactive: 37.1%
# `Cc1cc(C)c2c(NC(=O)c3ccccc3Cl)c(C(=O)Nc3ccc(C)c(C)c3)sc2n1` – Potency: inconclusive: 0.0233 µM [inhibitor, full curve]
